# Source: patent US8389231B2, “Assays, method and compositions that exploit a mycobacterial iron acquistion pathway in cells” (The Trustees of Princeton University, priority 2005, dated 2013)
# Tested on: macrophages (THP-1 cell line)
# Assay: Fluorescent confocal microscopy of intracellular distribution in macrophages
# Format: cell-based, human
substance,measurement,setting,value
gallium-mycobactin J [Ga-MJ],intracellular distribution within macrophages,"2 μM, macrophage culture 1×10^5 cells/ml, 20-120 min incubation",preferential affinity for lipid-droplets; also recorded: preferentially localized in a single intracellular structure
same,interaction of Ga-MJ-laden lipid droplets with phagosomes containing fluorescent E. coli,"macrophages with fluorescence-labeled E. coli phagosomes, 2 μM Ga-MJ, two hrs",direct contacts with phagosomes

# Entries after “also recorded” stand apart in the source; their conditions may differ.
